Experimental data: PubChem BioAssay AID1159578 (Peter MacCallum Cancer Centre, 2015)
Here is a random part of about 18,000 reagents tested. Of all reagents, about 1,030 (5.7%) were called active. 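Inactive calls also include pools with fewer than 3300 nuclei, whose migration was not assessed.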 Raw values are not corrected between plates. Not all columns of the deposit are shown. No sequences are given here.

Assay: 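Genome-wide hunt for genes controlling movement of lymphatic endothelial cells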 (primary screen)
System: human lymphatic endothelial cells
Reagents: siRNA pool against human genes, 40 nM
Timing: 48 h after transfection
Measurement: 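High-content imaging of dye-stained cells in a scratch assay measures filled wound area and nuclei per well; duplicate means given as ratio to mock and robust z-score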
Direction: migration robust z-score: higher = faster migration into the scratch; nuclei per well: higher = more cells in the well
Active means: 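Pools averaging fewer than 3300 nuclei are never called; remaining pools count as changed when migration robust z lies outside -2 to 2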
Meaning of the calls: active = migration changed; inactive = no migration change, or too few cells

SYCP2L scored migration robust z-score -2.54; migration class with cell-count check migration z below -2; enough cells; nuclei per well, duplicate mean 6160; active.
With knock-down of TNNI3K, the record shows migration robust z-score 0.42; migration class with cell-count check migration z between -2 and 2; enough cells; nuclei per well, duplicate mean 6150; inactive.
Knock-down of SLIRP resulted in: migration robust z-score 0.64; migration class with cell-count check migration z between -2 and 2; enough cells; nuclei per well, duplicate mean 5260; inactive.
HSPA6 gave migration robust z-score 0.18; migration class with cell-count check migration z between -2 and 2; enough cells; nuclei per well, duplicate mean 4801; inactive.
HAS2 gave migration robust z-score 1.27; migration class with cell-count check migration z between -2 and 2; enough cells; nuclei per well, duplicate mean 7142; inactive.
Depletion of MMGT1 gave: migration robust z-score -0.95; migration class with cell-count check migration z between -2 and 2; enough cells; nuclei per well, duplicate mean 3872; inactive.
NUDT18 gave migration robust z-score -0.75; migration class with cell-count check migration z between -2 and 2; enough cells; nuclei per well, duplicate mean 5660; inactive.
With knock-down of GPR174, the screen gave migration robust z-score -1.12; migration class with cell-count check migration z between -2 and 2; enough cells; nuclei per well, duplicate mean 6854; inactive.
PRRC1 scored migration robust z-score 0.1; migration class with cell-count check migration z between -2 and 2; enough cells; nuclei per well, duplicate mean 4458; inactive.
Knock-down of ZG16B gave: migration robust z-score -0.78; migration class with cell-count check migration z between -2 and 2; enough cells; nuclei per well, duplicate mean 6429; inactive.
Knock-down of B3GNT9 resulted in: migration robust z-score -0.34; migration class with cell-count check migration z between -2 and 2; enough cells; nuclei per well, duplicate mean 5770; inactive.
Knock-down of SELPLG gave: migration robust z-score -2.7; migration class with cell-count check migration z below -2; enough cells; nuclei per well, duplicate mean 4818; active.
CATSPER3 showed migration robust z-score -0.72; migration class with cell-count check migration z between -2 and 2; enough cells; nuclei per well, duplicate mean 5656; inactive.
For C1QTNF2, the entry reads migration robust z-score 0.64; migration class with cell-count check migration z between -2 and 2; enough cells; nuclei per well, duplicate mean 5338; inactive.
SYAP1 scored migration robust z-score -1.03; migration class with cell-count check migration z between -2 and 2; enough cells; nuclei per well, duplicate mean 5151; inactive.
After knock-down of SLC7A13, the record shows migration robust z-score 1.92; migration class with cell-count check migration z between -2 and 2; enough cells; nuclei per well, duplicate mean 6164; inactive.
SH3BGRL gave migration robust z-score 0.19; migration class with cell-count check migration z between -2 and 2; enough cells; nuclei per well, duplicate mean 5193; inactive.
Against RPS9 the deposit lists migration robust z-score 1.37; migration class with cell-count check migration z between -2 and 2; enough cells; nuclei per well, duplicate mean 6058; inactive.
Against SLAMF7 the deposit lists migration robust z-score 0.62; migration class with cell-count check migration z between -2 and 2; enough cells; nuclei per well, duplicate mean 5203; inactive.
Silencing of PORCN gave: migration robust z-score -0.68; migration class with cell-count check migration z between -2 and 2; enough cells; nuclei per well, duplicate mean 6175; inactive.
WFDC12 showed migration robust z-score -0.6; migration class with cell-count check migration z between -2 and 2; enough cells; nuclei per well, duplicate mean 4650; inactive.
With knock-down of AFF1 the results were migration robust z-score -1.72; migration class with cell-count check migration z between -2 and 2; enough cells; nuclei per well, duplicate mean 4872; inactive.
Knock-down of TMOD3 gave: migration robust z-score 0.88; migration class with cell-count check migration z between -2 and 2; enough cells; nuclei per well, duplicate mean 5634; inactive.
PDP1 gave migration robust z-score 0.08; migration class with cell-count check migration z between -2 and 2; enough cells; nuclei per well, duplicate mean 5210; inactive.
After knock-down of LAMA5, the screen gave migration robust z-score -0.73; migration class with cell-count check migration z between -2 and 2; enough cells; nuclei per well, duplicate mean 5165; inactive.
For ENSA the deposit lists migration robust z-score 0.04; migration class with cell-count check migration z between -2 and 2; enough cells; nuclei per well, duplicate mean 6354; inactive.
Silencing of IQGAP2 resulted in: migration robust z-score -1.32; migration class with cell-count check migration z between -2 and 2; enough cells; nuclei per well, duplicate mean 6167; inactive.
